Measurements published in the supplement of paper PMC12823440, “Inhibitors supercharge kinase turnover through native proteolytic circuits” (Nature, 2025).
Counter-ions that a name gives are not always drawn. Some of the results follow. Hit calls seldom repeat between salt and free forms of one compound.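 Kinases, fused to nanoluciferase, were expressed in K562 cells; luminescence was measured every 4 h from 2 to 18 h as percent of control (DMSO = 100%, positive control = 0%). A time point is decreased if signal falls significantly (2 sigma). Hits were called by the authors by a rule that is not shown; the count of time points alone does not decide it.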

By UniProt entry, the sequences of proteins in these tests, tags left out. Where a name states a change or a piece, a line headed by the entry shows the natural chain unless it says otherwise.
UniProt P43403: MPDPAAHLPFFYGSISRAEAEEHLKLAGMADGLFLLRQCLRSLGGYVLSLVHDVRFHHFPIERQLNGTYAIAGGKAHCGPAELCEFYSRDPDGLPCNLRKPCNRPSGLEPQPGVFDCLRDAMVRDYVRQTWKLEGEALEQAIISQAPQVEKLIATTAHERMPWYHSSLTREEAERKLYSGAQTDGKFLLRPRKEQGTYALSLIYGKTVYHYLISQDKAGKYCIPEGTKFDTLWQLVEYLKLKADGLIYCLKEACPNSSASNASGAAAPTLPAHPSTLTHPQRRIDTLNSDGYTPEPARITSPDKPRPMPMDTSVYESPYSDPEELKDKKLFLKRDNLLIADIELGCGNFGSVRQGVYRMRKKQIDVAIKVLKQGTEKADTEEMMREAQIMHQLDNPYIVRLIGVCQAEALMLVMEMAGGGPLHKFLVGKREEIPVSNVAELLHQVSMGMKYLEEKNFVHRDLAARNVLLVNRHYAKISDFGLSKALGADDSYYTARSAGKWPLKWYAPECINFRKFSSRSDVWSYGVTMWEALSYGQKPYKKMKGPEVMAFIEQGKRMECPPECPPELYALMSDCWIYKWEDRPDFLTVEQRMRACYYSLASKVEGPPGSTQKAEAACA
UniProt P00519, whole entry: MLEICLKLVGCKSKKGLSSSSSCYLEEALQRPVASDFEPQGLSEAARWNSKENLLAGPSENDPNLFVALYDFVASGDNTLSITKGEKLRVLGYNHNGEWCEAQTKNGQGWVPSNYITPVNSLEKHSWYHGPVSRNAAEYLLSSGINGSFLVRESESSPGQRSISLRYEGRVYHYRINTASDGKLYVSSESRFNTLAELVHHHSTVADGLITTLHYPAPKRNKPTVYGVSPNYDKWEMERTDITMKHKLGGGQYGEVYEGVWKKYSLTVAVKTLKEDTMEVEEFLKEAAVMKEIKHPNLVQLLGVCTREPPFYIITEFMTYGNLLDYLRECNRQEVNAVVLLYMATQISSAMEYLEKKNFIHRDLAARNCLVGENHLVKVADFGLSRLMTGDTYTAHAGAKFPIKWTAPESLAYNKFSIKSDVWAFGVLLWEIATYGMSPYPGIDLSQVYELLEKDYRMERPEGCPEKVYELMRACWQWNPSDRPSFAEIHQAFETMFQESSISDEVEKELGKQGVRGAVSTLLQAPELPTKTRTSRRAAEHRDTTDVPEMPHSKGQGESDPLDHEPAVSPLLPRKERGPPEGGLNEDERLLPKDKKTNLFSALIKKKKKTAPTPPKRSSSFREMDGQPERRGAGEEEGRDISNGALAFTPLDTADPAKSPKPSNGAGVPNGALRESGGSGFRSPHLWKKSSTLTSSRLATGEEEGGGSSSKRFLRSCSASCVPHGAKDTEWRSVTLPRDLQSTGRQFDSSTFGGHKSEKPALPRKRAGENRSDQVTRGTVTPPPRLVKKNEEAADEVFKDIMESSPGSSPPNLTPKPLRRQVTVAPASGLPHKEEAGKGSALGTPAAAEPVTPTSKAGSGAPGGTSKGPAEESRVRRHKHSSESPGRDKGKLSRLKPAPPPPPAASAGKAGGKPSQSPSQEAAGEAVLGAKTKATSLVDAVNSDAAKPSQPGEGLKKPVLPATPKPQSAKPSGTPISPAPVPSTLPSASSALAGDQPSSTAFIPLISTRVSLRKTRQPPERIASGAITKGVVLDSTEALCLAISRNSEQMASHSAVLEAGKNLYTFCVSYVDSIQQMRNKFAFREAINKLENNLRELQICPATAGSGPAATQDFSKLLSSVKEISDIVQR

biological target: ZAP70 (UniProt P43403); experiment: kinase-Nluc reporter destabilization hit call (1 = scored as downregulated) (binary); higher = compound decreases kinase abundance; settings: K562; 2-18 h

SMILES | kinase-Nluc reporter destabilization hit call
Brc1ccc(CSc2nc3ccccc3o2)cc1 [BMP signaling agonist sb4] (10 µM) | inactive: 0
O=C1OC(/C=C/c2ccccc2)=NC/1=C\c1cccnc1 (10 µM) | inactive: 0
O=C(NCCN1CCOCC1)Nc1nc2ccc(Sc3nnc4ccc(-c5ccc(F)cc5)nn34)cc2s1 (10 µM) | inactive: 0
Cn1c(CNc2cccc(C(=O)NCc3ccccc3C(F)(F)F)c2)nnc1-c1ccncc1 (10 µM) | inactive: 0
COc1cc2cc(Oc3ccc4ccc(=O)oc4c3)c(=O)oc2cc1O [Daphnoretin] (10 µM) | inactive: 0
O=C(O)c1cc(N(Cc2ccccc2O)Cc2cc(O)ccc2O)ccc1O [Lavendustin A] (10 µM) | inactive: 0
Cc1c(Cl)cccc1S(=O)(=O)Nc1nc(NCCc2ccccc2)nc2c1CN(Cc1ccccc1)CC2 (2.5 µM) | inactive: 0
CO[C@H]1C[C@@H]2CC[C@@H](C)[C@@](O)(O2)C(=O)C(=O)N2CCCC[C@H]2C(=O)O[C@H]([C@H](C)C[C@@H]2CC[C@@H](OC(=O)C(C)(CO)CO)[C@H](OC)C2)CC(=O)[C@H](C)/C=C(\C)[C@@H](O)[C@@H](OC)C(=O)[C@H](C)C[C@H](C)/C=C/C=C/C=C/1C [Temsirolimus] (2.5 µM) | inactive: 0
O=C1Nc2ccc(CN3C(=O)CSC3=O)cc2/C1=C/c1cc(CN2CCOCC2)c[nH]1 (10 µM) | inactive: 0

biological target: ABL1 (UniProt P00519); experiment: number of time points (of 5) at which kinase-Nluc abundance scored as decreased, DMSO-normalised (count); higher = more persistent destabilization; settings: K562; 2-18 h

SMILES | number of time points
N#Cc1cnc2c(Cl)cc(NCc3cn(CCN4CCCCCC4)nn3)cc2c1Nc1ccc(F)c(Cl)c1 [Cot inhibitor-1] (10 µM) | 0
Cc1cc(Nc2cc(N)ncn2)c(=O)n2c1C(=O)NC21CCCCC1 [Tomivosertib] (10 µM) | 0
CC(Cc1ccc(O)c(O)c1)C(C)Cc1ccc(O)c(O)c1 (configuration not stated) [Nordihydroguaiaretic acid] (2.5 µM) | 0
CNC(=O)c1ccc2c(C(=Nc3cccc(CN(C)C)c3)c3ccccc3)c(O)[nH]c2c1 [MEK inhibitor] (10 µM) | 0
COC(=O)[C@H](CCSC)NC(=O)c1ccc(NC[C@@H](N)CS)cc1-c1ccccc1 [FTI-277 (hydrochloride)] (10 µM) | 0
C=CC(=O)Nc1ccc(C(=O)Nc2[nH]nc3c2CN(C(=O)N[C@H](CN(C)C)c2ccccc2)C3(C)C)cc1 (10 µM) | 1
CCN(CC)CCCC(C)Nc1nc(C)cc(Nc2ccc3nc(C)cc(N)c3c2)n1 (configuration not stated) (10 µM) | 0
COc1cc(F)ccc1-c1ncnc(Nc2cccc(C[S@](C)(=N)=O)c2)n1 [Atuveciclib] (2.5 µM) | 1
O=C(c1cccc(Cl)c1F)N1CCN(Cc2cccc(Nc3nccs3)n2)CC1 (2.5 µM) | 1
N#Cc1ccc(-c2cnc3ccc(-c4ccc(C(=O)N5CCOCC5)cc4)cn23)cc1 (10 µM) | 0
Cc1ccc(C(=O)NC2CC2)cc1-n1ncc(C(=O)c2cccc(C#N)c2)c1N [Acumapimod] (10 µM) | 0
N#Cc1ccc(-c2cnc3[nH]cc(NC(=O)c4cccnc4)c3c2)cc1 (10 µM) | 0
CC1(N)CCN(c2cccnc2NC(=O)c2nc(-c3ncccc3C(F)(F)F)cnc2N)CC1 [Darovasertib] (10 µM) | 0
COc1cc(N2CCC(N3CCN(C)CC3)CC2)ccc1Nc1ncc(Cl)c(-c2c[nH]c3ccccc23)n1 (2.5 µM) | 0
CN1CCN(c2ccc(Nc3ncc4cc(C#N)c(=O)n(C5CCCC5)c4n3)cc2)CC1 (10 µM) | 0
CO[C@H]1CC[C@H](N2C(=O)CNc3ncc(-c4ccc(C(C)(C)O)nc4)nc32)CC1 (2.5 µM) | 0
Cc1c(C(=O)Nc2ccc(Oc3ccnc4[nH]cc(-c5ccccc5)c34)c(F)c2)c(=O)n(-c2ccc(F)cc2)n1C (10 µM) | 4
COc1ccc(Nc2ncc(C(F)(F)F)c(NC3CC3)n2)cc1OC (10 µM) | 4
C[C@@H]1O[C@@H](Oc2cc(O)c3c(=O)c(O[C@@H]4O[C@@H](C)[C@H](O)[C@@H](O)[C@H]4O)c(-c4ccc(O)cc4)oc3c2)[C@H](O)[C@H](O)[C@H]1O [Kaempferitrin] (10 µM) | 0

SMILES | number of time points
COC(=O)Nc1ccc(-c2nc(N3CCOCC3)c3cnn(C4CCN(Cc5cccnc5)CC4)c3n2)cc1 (10 µM) | 0
CC(C)Oc1ccc(F)c(-c2cnc(N)c(C(=O)Nc3cnccc3N3CCC[C@@H](C(=O)O)C3)n2)c1 (2 µM) | 0
O=Nc1c(-c2c(O)[nH]c3cc(Br)ccc23)[nH]c2ccccc12 [GSK 3 Inhibitor IX] (2.5 µM) | 0
NCC1CCC(CNc2nc(NCc3ccccc3OC(F)(F)F)ncc2[N+](=O)[O-])CC1 (configuration not stated) [PKC-theta inhibitor] (10 µM) | 5
N[C@@H]1CCCN(c2c(/C=C3\SC(=O)NC3=O)cccc2-c2ccccc2)C1 (10 µM) | 0
CCn1c(-c2nonc2N)nc2c(C#CC(C)(C)O)ncc(OC[C@H]3CCCNC3)c21 (10 µM) | 0
CNC(=O)c1cc2c(Oc3ccc(NC(=O)C4(C(=O)Nc5ccc(F)cc5)CC4)cc3)ccnc2cc1OC (2.5 µM) | 3
C=CC(=O)N1CC[C@@H](Oc2nc(Nc3ccc(N4CCC(N5CCN(C)CC5)CC4)cc3)c(C(N)=O)nc2CC)C1 [Naquotinib (mesylate)] (2.5 µM) | 0
C=CC(=O)Nc1cc(Nc2nccc(-c3cn(C)c4ccccc34)n2)c(OC)cc1OCCN(C)C [Rezivertinib] (2.5 µM) | 0
Oc1c(F)cc(-c2cnccc2-c2ccc(N3CCOCC3)cc2)cc1F (10 µM) | 0
Brc1ccc(CSc2nc3ccccc3o2)cc1 [BMP signaling agonist sb4] (10 µM) | 0
O=C1OC(/C=C/c2ccccc2)=NC/1=C\c1cccnc1 (10 µM) | 0
O=C(NCCN1CCOCC1)Nc1nc2ccc(Sc3nnc4ccc(-c5ccc(F)cc5)nn34)cc2s1 (10 µM) | 0
Cn1c(CNc2cccc(C(=O)NCc3ccccc3C(F)(F)F)c2)nnc1-c1ccncc1 (10 µM) | 0
COc1cc2cc(Oc3ccc4ccc(=O)oc4c3)c(=O)oc2cc1O [Daphnoretin] (10 µM) | 0
O=C(O)c1cc(N(Cc2ccccc2O)Cc2cc(O)ccc2O)ccc1O [Lavendustin A] (10 µM) | 0
Cc1c(Cl)cccc1S(=O)(=O)Nc1nc(NCCc2ccccc2)nc2c1CN(Cc1ccccc1)CC2 (2.5 µM) | 0
CO[C@H]1C[C@@H]2CC[C@@H](C)[C@@](O)(O2)C(=O)C(=O)N2CCCC[C@H]2C(=O)O[C@H]([C@H](C)C[C@@H]2CC[C@@H](OC(=O)C(C)(CO)CO)[C@H](OC)C2)CC(=O)[C@H](C)/C=C(\C)[C@@H](O)[C@@H](OC)C(=O)[C@H](C)C[C@H](C)/C=C/C=C/C=C/1C [Temsirolimus] (2.5 µM) | 0
O=C1Nc2ccc(CN3C(=O)CSC3=O)cc2/C1=C/c1cc(CN2CCOCC2)c[nH]1 (10 µM) | 0

As entered above.
Entry for N[C@@H]1CCCN(c2c(/C=C3\SC(=O)NC3=O)cccc2-c2ccccc2)C1 (10 µM) under number of time points: 0
Entry for Cn1c(CNc2cccc(C(=O)NCc3ccccc3C(F)(F)F)c2)nnc1-c1ccncc1 (10 µM) under number of time points: 0
Entry for CCn1c(-c2nonc2N)nc2c(C#CC(C)(C)O)ncc(OC[C@H]3CCCNC3)c21 (10 µM) under number of time points: 0
